Among all 300,000 compounds or so, about 3,700 (1.2%) were called active. Inconclusive results, whose numbers are uncertain, are shown with a selection of clear calls. Calls follow the shape of the full dose curve; tested in HEK293 cells. Where the call is inconclusive, the potency comes from a doubtful curve fit.
Assay: qHTS for Inhibitors of binding or entry into cells for Lassa Virus; also: nearly all actives have a fitted effect of over 50% in size
Settings: Lassa virus pseudotype entry inhibition, cell reporter; series mostly up to 37.9 µM
Potency is read from the fitted curve at half-maximal effect.

| SMILES | Potency |
| --- | --- |
| O=C(Nc1nccs1)c1ccc(NC(=O)c2ccco2)cc1 | inconclusive: 11.6 µM [activator, partial curve, poor fit] |
| O=C1C2C3C=CC(C3=C(c3ccccc3)c3ccccc3)C2C(=O)N1CCO (configuration not stated) | inconclusive: 14.6 µM [inhibitor, partial curve, poor fit] |
| COc1ccc(CN2C(=O)c3ccccc3C2C(=O)NCC2CCCO2)c(OC)c1 (configuration not stated) | inconclusive: 12.6 µM [inhibitor, partial curve, poor fit] |
| CN(Cc1cccs1)C(=O)CSc1nc(N)cc(N)n1 | inconclusive: 0.631 µM [inhibitor, single point] |
| CCOc1ccc(Nc2ncnc3c2nc2n3CCCCC2)cc1 | inactive |
| Cc1ccccc1C(=O)/C(C#N)=N/Nc1c(C)n(C)n(-c2ccccc2)c1=O | inconclusive: 5.62 µM [inhibitor, partial curve] |
| CSCC[C@H](NC(=O)c1ccc(Cl)c(S(=O)(=O)N2CCCC2)c1)c1nc2ccccc2[nH]1 | inconclusive: 29.1 µM [inhibitor, single point] |
| Cc1cccc(NC(=S)N/N=C/c2ccc3c(c2)OCO3)c1 | inconclusive: 7.94 µM [inhibitor, partial curve] |
| COc1nccnc1NS(=O)(=O)c1ccc(NC(=S)NC(=O)c2ccc(F)cc2)cc1 | inactive |
| CC(C)c1cc(=O)oc2c3c4c(cc12)CCCN4CCC3 | inconclusive: 29.1 µM [inhibitor, single point] |
| O=C(c1cccs1)N(Cc1cccc(Cl)c1)C1CCS(=O)(=O)C1 (configuration not stated) | inconclusive: 25.9 µM [activator, partial curve, poor fit] |
| COc1ccc(N(C)C(=O)c2nc(-c3cccc(F)c3)n3c2CCCCC3)c(OC)c1 | inactive |
| CC(C)Cn1c(N)c(C(=O)CSc2nc3ncc(Cl)cc3[nH]2)c(=O)n(C)c1=O | inconclusive: 12.6 µM [inhibitor, single point] |
| C=CCNC(=S)N1CCc2[nH]c3ccccc3c2C1 | inconclusive: 6.31 µM [inhibitor, single point] |
| Cc1ccccc1NC(=O)CSc1cn(CC(=O)N2CCCC2)c2ccccc12 | inconclusive: 10 µM [activator, partial curve, poor fit] |
| COc1ccc(C(C)(C)C)cc1NC(=O)COC(=O)CSCc1c(C)noc1C | inactive |
| COc1ccc(C2c3ccc(O)cc3Oc3ncn(CC(C)C)c(=N)c32)cc1 (configuration not stated) | inconclusive: 35.5 µM [inhibitor, single point] |
| CCC(=O)Nc1cccc(-n2nnnc2SCC(=O)NCc2ccco2)c1 | inconclusive: 35.5 µM [activator, single point] |
| O=C(N/N=C\c1ccc2c(c1)OCO2)c1ccco1 | inconclusive: 7.94 µM [inhibitor, partial curve, poor fit] |
| CC(=O)[C@H]1CCC2C3CC[C@H]4C[C@@H](O)CC[C@]4(C)C3CC[C@@]21C (some centres not stated) | inactive |
| CSc1ccc(CNc2cccc3ccccc23)cc1 | inconclusive: 20.6 µM [inhibitor, partial curve] |

| SMILES | Potency |
| --- | --- |
| Cc1ccc(C2C3=C(CC(C)(C)CC3=O)NC3=C2C(=O)c2ccccc23)cc1 (configuration not stated) | inconclusive: 22.4 µM [inhibitor, single point] |
| CCOc1ccc(-c2nc(N)ncc2-c2ccccc2OC)c(O)c1 | inconclusive: 14.1 µM [inhibitor, partial curve, poor fit] |
| COc1ccc(C(=O)N2CCNC(=O)C2CC(=O)Nc2cc(Cl)ccc2OC)cc1 (configuration not stated) | inconclusive: 2.82 µM [inhibitor, partial curve, poor fit] |
| CCOc1ccc(CNC(=O)C2CCN(S(=O)(=O)c3ccc4c(ccn4C)c3)CC2)cc1 | inactive |
| COc1ccc(CCn2c(C(C)C)nc3c(c(=O)c4ccccc4n3C)c2=O)cc1 | inactive |
| CCc1cc(=O)oc2cc(C)cc(OC(C)C(=O)NCc3ccncc3)c12 (configuration not stated) | inactive |
| Cc1ccc(S(=O)(=O)N(C)C)cc1NC(=O)[C@H](Cc1ccccc1)N1C(=O)c2ccccc2C1=O | inconclusive: 0.891 µM [inhibitor, full curve, poor fit] |
| O=C(NCc1ccco1)c1ccc(Oc2ccccc2)cc1 | inconclusive: 29.1 µM [inhibitor, single point] |
| Cc1ccc(C(=O)NCCc2cccs2)cc1 | inconclusive: 5.17 µM [inhibitor, partial curve, poor fit] |
| COc1cccc(CNC(=O)CCn2c(=O)c3cccn3c3cccnc32)c1OC | inactive |
| CC(C)(C)n1nnnc1C(c1cccnc1)N(Cc1ccccc1)Cc1ccco1 (configuration not stated) | inactive |
| CC1CCCC(C2(O)C(=O)Nc3ccccc32)C1=O (configuration not stated) | inconclusive: 4.47 µM [inhibitor, single point] |
| Cc1cccc(NC(=O)CSCC(=O)Nc2cccc(S(=O)(=O)N3CCCCCC3)c2)c1 | inactive |
| CC(=O)N1c2ccc(S(=O)(=O)NCC3CCC(C(=O)N(C)Cc4ccccc4)CC3)cc2CC1C (configuration not stated) | inconclusive: 10 µM [inhibitor, single point] |
| COc1ccnc(CN(C)C(=O)C2CCC(=O)N(Cc3cccc(C(F)(F)F)c3)C2)c1 (configuration not stated) | inactive |
| CSc1nc(N(C)C)nc(N(C#N)CCOC(C)=O)n1 | inconclusive: 12.6 µM [inhibitor, partial curve, poor fit] |
| O=C(NC1CCCc2ccccc21)C1CCN(S(=O)(=O)N2CCCCCC2)CC1 (configuration not stated) | inconclusive: 3.66 µM [inhibitor, full curve] |
| CCOc1ccc(-n2c(SCc3ccc([N+](=O)[O-])cc3)nnc2-c2ccccc2)cc1 | inconclusive: 35.5 µM [inhibitor, single point] |
| Cc1cc(C)cc(OCC(=O)N/N=C/c2ccc([N+](=O)[O-])o2)c1 | inconclusive: 25.1 µM [inhibitor, single point] |
| N#Cc1ccc(NC(=O)Nc2ccc(Oc3ccc(NC(=O)Nc4ccc(C#N)cc4)cc3)cc2)cc1 | inconclusive: 10 µM [inhibitor, partial curve, poor fit] |
| COc1ccc(-c2cc(=O)c3c(OC)c(OC)c(OC)c(OC)c3o2)cc1OC | inactive |

Individual results from above.
CC(C)Cn1c(N)c(C(=O)CSc2nc3ncc(Cl)cc3[nH]2)c(=O)n(C)c1=O | Potency: inconclusive: 12.6 µM [inhibitor, single point]
O=C(NC1CCCc2ccccc21)C1CCN(S(=O)(=O)N2CCCCCC2)CC1 (configuration not stated) | Potency: inconclusive: 3.66 µM [inhibitor, full curve]

Reference: PubChem BioAssay AID540256 (National Center for Advancing Translational Sciences (NCATS), 2011)
